Laboratory results published in patent publication US20080235826A1.
These are yes or no findings as the source states them, for the method shown. Binding seen in cells or lysates may run through a third protein. Some entries that bind do so weakly or less than the wild type. Sequences can lack the tags named with a protein.

Sequences of proteins named here, by UniProt entry; tags and fusion partners are left off.
UniProt P14713: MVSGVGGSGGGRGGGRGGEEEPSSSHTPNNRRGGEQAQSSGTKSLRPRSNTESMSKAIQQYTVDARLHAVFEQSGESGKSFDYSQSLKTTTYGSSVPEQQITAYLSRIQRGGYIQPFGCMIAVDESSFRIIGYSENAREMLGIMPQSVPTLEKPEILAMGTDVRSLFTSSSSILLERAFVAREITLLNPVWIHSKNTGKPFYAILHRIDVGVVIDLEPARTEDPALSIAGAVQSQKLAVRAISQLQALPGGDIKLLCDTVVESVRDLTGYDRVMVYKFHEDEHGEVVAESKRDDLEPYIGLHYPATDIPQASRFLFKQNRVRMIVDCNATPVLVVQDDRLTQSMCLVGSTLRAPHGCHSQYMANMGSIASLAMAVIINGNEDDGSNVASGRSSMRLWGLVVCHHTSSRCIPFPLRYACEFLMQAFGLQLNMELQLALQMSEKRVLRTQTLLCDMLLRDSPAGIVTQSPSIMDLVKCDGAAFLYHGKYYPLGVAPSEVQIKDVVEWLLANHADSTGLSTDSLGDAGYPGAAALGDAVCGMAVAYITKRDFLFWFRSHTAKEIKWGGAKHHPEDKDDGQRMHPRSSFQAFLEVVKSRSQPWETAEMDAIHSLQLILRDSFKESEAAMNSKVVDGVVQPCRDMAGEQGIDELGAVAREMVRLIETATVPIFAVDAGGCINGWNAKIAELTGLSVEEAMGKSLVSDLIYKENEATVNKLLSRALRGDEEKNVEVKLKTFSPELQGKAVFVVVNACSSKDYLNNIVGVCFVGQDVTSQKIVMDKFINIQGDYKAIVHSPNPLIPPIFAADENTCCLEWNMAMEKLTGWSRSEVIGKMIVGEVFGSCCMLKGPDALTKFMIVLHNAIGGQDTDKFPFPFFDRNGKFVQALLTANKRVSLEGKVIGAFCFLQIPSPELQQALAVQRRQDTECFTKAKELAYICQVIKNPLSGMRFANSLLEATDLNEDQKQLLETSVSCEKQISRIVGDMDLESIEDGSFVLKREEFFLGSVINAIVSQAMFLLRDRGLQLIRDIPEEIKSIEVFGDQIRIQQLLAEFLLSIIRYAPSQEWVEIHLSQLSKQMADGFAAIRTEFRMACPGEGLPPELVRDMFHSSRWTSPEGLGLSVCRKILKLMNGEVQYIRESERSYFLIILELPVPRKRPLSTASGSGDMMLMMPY

T1: PHYA apoprotein of Arabidopsis thaliana phytochrome A, in vitro translated, 35S-methionine labeled (Arabidopsis thaliana) (UniProt P14712)
T1 sequence (35S-labeled methionine, looked up): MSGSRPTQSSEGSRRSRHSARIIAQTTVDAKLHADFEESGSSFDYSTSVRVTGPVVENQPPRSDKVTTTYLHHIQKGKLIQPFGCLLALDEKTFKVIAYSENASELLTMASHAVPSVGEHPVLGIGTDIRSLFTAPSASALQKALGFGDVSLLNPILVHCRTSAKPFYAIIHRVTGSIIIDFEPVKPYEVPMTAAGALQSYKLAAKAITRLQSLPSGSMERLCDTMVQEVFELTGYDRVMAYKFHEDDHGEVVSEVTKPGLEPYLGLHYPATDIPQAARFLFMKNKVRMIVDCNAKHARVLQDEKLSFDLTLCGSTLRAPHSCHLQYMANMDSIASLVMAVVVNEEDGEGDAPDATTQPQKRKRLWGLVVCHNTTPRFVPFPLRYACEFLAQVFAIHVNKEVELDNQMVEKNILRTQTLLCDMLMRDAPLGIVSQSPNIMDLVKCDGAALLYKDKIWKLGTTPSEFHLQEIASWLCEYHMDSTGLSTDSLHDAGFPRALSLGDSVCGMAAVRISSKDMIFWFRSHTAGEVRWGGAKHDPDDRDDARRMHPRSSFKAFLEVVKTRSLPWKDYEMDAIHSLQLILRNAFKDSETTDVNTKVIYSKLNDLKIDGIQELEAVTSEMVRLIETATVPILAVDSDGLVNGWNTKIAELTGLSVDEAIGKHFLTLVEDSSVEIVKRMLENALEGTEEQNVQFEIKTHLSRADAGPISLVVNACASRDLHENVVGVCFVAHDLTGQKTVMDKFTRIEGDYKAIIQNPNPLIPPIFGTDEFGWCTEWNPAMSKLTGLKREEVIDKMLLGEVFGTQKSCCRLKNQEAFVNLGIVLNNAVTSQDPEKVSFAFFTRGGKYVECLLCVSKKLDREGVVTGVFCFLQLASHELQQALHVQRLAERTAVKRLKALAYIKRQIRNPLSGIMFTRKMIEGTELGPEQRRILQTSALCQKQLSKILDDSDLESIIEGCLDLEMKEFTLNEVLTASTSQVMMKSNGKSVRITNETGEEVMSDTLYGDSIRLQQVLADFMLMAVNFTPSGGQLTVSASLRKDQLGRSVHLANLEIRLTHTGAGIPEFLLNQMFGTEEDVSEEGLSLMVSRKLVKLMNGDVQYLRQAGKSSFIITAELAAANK

B1: GST-PAPP5 fusion protein (glutathione-S-transferase fused to full-length PAPP5) (enzyme, not shown: a dimerising Fc or GST)
chain: METKNENSDVSRAEEFKSQANEAFKGHKYSSAIDLYTKAIELNSNNAVYWANRAFAHTKLEEYGSAIQDASKAIEVDSRYSKGYYRRGAAYLAMGKFKDALKDFQQVKRLSPNDPDATRKLKECEKAVMKLKFEEAISVPVSERRSVAESIDFHTIEVEPQYSGARIEGEEVTLDFVKTMMEDFKNQKTLHKRYAYQIVLQTRQILLALPSLVDISVPHGKHITVCGDVHGQFYDLLNIFELNGLPSEENPYLFNGDFVDRGSFSVEIILTLFAFKCMCPSSIYLARGNHESKSMNKIYGFEGEVRSKLSEKFVDLFAEVFCYLPLAHVINGKVFVVHGGLFSVDGVKLSDIRAIDRFCEPPEEGLMCELLWSDPQPLPGRGPSKRGVGLSFGGDVTKRFLQDNNLDLLVRSHEVKDEGYEVEHDGKLITVFSAPNYCDQMGNKGAFIRFEAPDMKPNIVTFSAVPHPDVKPMAYANNFLRMFN
B2: GST-TPR (fusion protein of GST and the TPR domain of PAPP5, amino acids 1-138 of SEQ ID NO: 4) (protein, not shown: a dimerising Fc or GST)
chain: METKNENSDVSRAEEFKSQANEAFKGHKYSSAIDLYTKAIELNSNNAVYWANRAFAHTKLEEYGSAIQDASKAIEVDSRYSKGYYRRGAAYLAMGKFKDALKDFQQVKRLSPNDPDATRKLKECEKAVMKLKFEEAIS

Legend:
[1] = molecular target: PHYB apoprotein of Arabidopsis thaliana phytochrome B, in vitro translated, 35S-methionine labeled (Arabidopsis thaliana) (UniProt P14713); test: in vitro GST pull-down of 35S-labeled TnT protein on glutathione-sepharose beads, SDS-PAGE
[2] = molecular target: T1, PHYA apoprotein of Arabidopsis thaliana phytochrome A, in vitro translated, 35S-methionine labeled (Arabidopsis thaliana); test: as above
[3] = molecular target: PHYB apoprotein of Arabidopsis thaliana phytochrome B, in vitro translated, 35S-methionine labeled (Arabidopsis thaliana) (UniProt P14713); test: GST pull-down with 35S-labeled in vitro translated phytochrome
[4] = molecular target: T1, PHYA apoprotein of Arabidopsis thaliana phytochrome A, in vitro translated, 35S-methionine labeled (Arabidopsis thaliana); test: as above

Binder	binding [1]	binding [2]	binding [3]	binding [4]
B1	binds	binds	–	–
B2	–	–	binds	binds
